Measured values: PubChem BioAssay AID1508600 (Functional Genomics Laboratory (NCATS/FGL), 2020)
Screen size: about 53,000 sequences; about 3,700 (7%) were called active.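 The calls were made as follows: active = gene knockdowns whose robust z-score for IL-1 alpha signal is at least 2 or at most -2, so actives lie on both sides; inactive = the rest.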 The list shows a part of the results.

Assay: Components of the Cytosolic LPS Sensing Pathway: Gene Identification via Genome-wide siRNA Screen;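 also: robust z of the log signal after scaling to non-targeting control siRNA wells of the plate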
Details: RAW264.7 macrophages, IL-1a HTRF, actives lie on both sides, screened at 100 nM (by protocol), cells primed 5 h with Pam3CSK4 first
Summary of the method: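 RAW264.7 mouse macrophages reverse-transfected with single siRNAs (100 nM final) for 48h, primed with Pam3CSK4 for 5 hours, then transfected with LipidA for 24 hour. Supernatant IL-1a read by HTRF; values normalized to negative-control median, log-transformed robust z-scores.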
For GGAAUCGAGAUAUAAAAGGTT against Olfr352, the z-score was inactive: -1.29. With CCAUCGUAUUUAACCACAUTT against Dtymk the z-score was inactive: 0.206. In the case of CCUGAGUGAAAACUACUUATT against Nagk, the z-score was inactive: 0.356. For GCUGCUAUCCAGAAGGUAUTT against Egr2, the z-score was active: -2.04. With GGAUGCUAUACAUUUCUACTT against Stip1 the z-score was inactive: 1.27. In the case of GGCCAACAUCUGCUAUGUCTT against Hao2, the z-score was active: -2.58. In the case of GCUCAGCAUGCUGAUUCCATT against Zmynd15, the z-score was inactive: 0.0921. In the case of GGUGACAACACUUGUCAACTT against Ctnna2, the z-score was inactive: -0.551. With CCUCAACUCCCUGUCACACTT against Rnaseh2a the z-score was inactive: 0.944. For CGGCAGACAGACCUAUGAUTT against Exosc9, the z-score was inactive: -1.56. For GGUGAUCAGACUAUCAGCUTT against Olfr1384, the z-score was inactive: 0.115. In the case of GCAACAACGAGUCAUGGCUTT against Plcd1, the z-score was inactive: -0.502. With GGAAUUUCUUAUCCUCAUGTT against Cyp2c29 the z-score was inactive: 0.278. For “CGCAGGUGUACAUAGCAGUTT against C130050O18Rik”, the z-score was inactive: 0.996. With GCUACCAUCUGCUAAUACATT against Smg1 the z-score was active: 3.65. With CCUUGAGGAACCAACAAAATT against Rarb the z-score was inactive: 0.0528. For CCAGCUGUCACAUGAAGUGTT against Fbxo38, the z-score was inactive: -0.482. For GGAGAUCAUGUCAAAAAAGTT against Ibtk, the z-score was inactive: -0.848. With CCUUUCCUGACAAUGUACATT against Nectin1 the z-score was inactive: 0.765. For CCGGAAGACUGGUAUUCUCTT against Nr1h4, the z-score was inactive: -0.324. For GGGCUAGACAUCAUCACCATT against Trit1, the z-score was inactive: -1.58. In the case of GGCUGAUAGGUGUAUCUGGTT against Trim11, the z-score was inactive: -0.718. With CCAGUUACGUUAAAAGCUUTT against Tmem131 the z-score was inactive: -1.13. With GGAGGUAAAAGAUGAGAAATT against Plekho1 the z-score was inactive: 1.57. With GGGUGUCAUAUAUAUUGCUTT against Gpr83 the z-score was inactive: 0.889. With GGAGGUGGAGUUCAUCUUUTT against Chrne the z-score was inactive: 0.976. In the case of GGAUGGUUCUGAGGUGAAATT against Il25, the z-score was inactive: 1.59. In the case of CGUGGUUUGUCAAUGAAGGTT against Eprs, the z-score was inactive: 0.358. In the case of GGAUGCAUAUUAAAGAAACTT against Gabrb3, the z-score was inactive: -0.659. With CCUUACCACUUGAAGAUGGTT against Ephx1 the z-score was inactive: -1.2. For “GCGAUUUCAUAAAGUAAACTT against 1110059G10Rik”, the z-score was inactive: -1.42. For GGAUAAGGAAGGAAUUCCUTT against Rps27a, the z-score was inactive: -0.5. With “CCGAAUUUCUCCUAUUGGGTT against Olfr106-ps” the z-score was inactive: -0.241. With GCGAGACUAUCAAAUCUAUTT against Gabra4 the z-score was inactive: 0.948. In the case of GGCCAUUAAAUUUAUCAACTT against Aldh3a1, the z-score was inactive: 1.61. In the case of CCCUCAAGAGACCCAAAUUTT against Xrcc1, the z-score was inactive: 1.37. With GGCGGCAAGCAACAACAAUTT against Ssbp1 the z-score was inactive: 0.155. In the case of CGGCCAACUUUCAUUGAUCTT against Ikzf4, the z-score was inactive: -0.984. In the case of GGAAAAAGAGCUUUUGGUCTT against Piwil2, the z-score was inactive: 0.528. With CCCGGACAUCAUAAUCAGUTT against Ppcs the z-score was inactive: 0.694. With GCUUUGAGUACUGACACGCTT against Ccr10 the z-score was inactive: 1.37. In the case of GCAAUUCCAAGAAAGUGUGTT against Prmt5, the z-score was inactive: -0.305. With GGACCUUCUAUUAUUUGUATT against Tmem67 the z-score was inactive: -0.794. In the case of CCUUUGAAAACCUACAAGUTT against Ppara, the z-score was inactive: -0.834. With GCGGCUUCAUUUCAAGCUGTT against Lnx2 the z-score was inactive: -1.34. For GCCAAUCAACUGAUGGCUUTT against Pax3, the z-score was inactive: 0.709. In the case of GGUCCUUAGAAUAAUUAAGTT against Me1, the z-score was inactive: -1.01. With GUCUGUCAUUUGUGGAAAUTT against Olfr1495 the z-score was active: -2.17. With GGAAACCUGUCCAGUUCUUTT against Slc38a5 the z-score was inactive: -1.2. With GCUAAUGGACAGGUAAAUATT against Pcdh1 the z-score was inactive: 0.512. In the case of GGUGACCAACUCUAUCAGGTT against Pglyrp1, the z-score was inactive: 0.0498. With GCAUGCUUAAGCCUAUAAATT against Ncstn the z-score was inactive: -1.88. With GGACAACAAAGGGAGAUUCTT against Kctd12b the z-score was inactive: 1.43. In the case of GGAAAUGACCACAAUAUUUTT against Plaa, the z-score was inactive: 0.856. In the case of GGCAGUUUCUUCAGUUCUUTT against Mcub, the z-score was inactive: 0.339. For CCACAGACUCUUAAUUAGATT against Ap3b1, the z-score was active: -2.14. For GCUUGUUCAGUUAACAAGATT against Ppp6r3, the z-score was inactive: 1.92. With CGAUUAUCAACUCAUAUGCTT against Eif5a2 the z-score was inactive: 0.0842. In the case of GGUGAAGAUCAUAUAAAAGTT against Crebl2, the z-score was inactive: 0.48. With GCUUAAGUUCCUUCUUCUCTT against Tas2r144 the z-score was inactive: 1.38. In the case of GGCUCUUAAUACCACCUACTT against Egr1, the z-score was inactive: -1.49. With GGAGAUGUACCACAAUGCCTT against Prss29 the z-score was inactive: -0.128. With CGGAUUUAAGCAGAGUGGATT against Fgl1 the z-score was inactive: -1.72. For GGUAGUAUUCAGUGAAUACTT against Cks2, the z-score was inactive: -0.192. With CCUAAACAUCACUUGCUCUTT against Cd200 the z-score was inactive: -1.2. For CGGAAGAAUAAAAACCGGCTT against Meaf6, the z-score was inactive: 0.601. For GGACCUGUCUUCAUUGGAGTT against Ngb, the z-score was inactive: 0.981. In the case of GGAAGAUUCUAGAAAUGUGTT against Rimkla, the z-score was inactive: -0.386. With GGUGUGUGAGAUAAUUGAGTT against Cops6 the z-score was inactive: 0.481. For GGCCAAUGCACUCCUGAUCTT against Gna11, the z-score was inactive: -0.238. For GGAAGCUUUUGUCGGUCCATT against Hap1, the z-score was inactive: -0.361. In the case of GGAACUCAGAGCUAAACUUTT against Eri1, the z-score was inactive: -1.42. In the case of CGGUGAGGAUUGUUGAGCUTT against Spred3, the z-score was inactive: 0.0843. With GCAUCACGUACGCCAUCAUTT against Ldlrad3 the z-score was inactive: -0.716. In the case of GGGAAUCUCUACAGACCCUTT against Tmem108, the z-score was inactive: -0.158. For GGAUUUGGCAACAGACUUUTT against Ryr2, the z-score was inactive: -0.391. For GCCUGUAGACACAAAAUUUTT against Akp3, the z-score was inactive: 0.614. In the case of CCCAGUUGCUAUGCUUGACTT against Defb37, the z-score was inactive: 1.68. In the case of CCUAAAGUCUCUGAAUCAGTT against Fyb, the z-score was inactive: 0.45. For GGAGAUACUUCGAUACUUUTT against Baz1b, the z-score was inactive: 0.406. In the case of GGAUUGAUAAUGAACUUCGTT against Slc13a5, the z-score was inactive: -1.38. With “GGAAGAUGAUACAAGCAAATT against A930002I21Rik” the z-score was inactive: 0.292. With GGUAGAGCAAGACCUUCCUTT against P4ha3 the z-score was inactive: 0.514. For GGAGGCGUGUACCUAAAGATT against Adm2, the z-score was inactive: -0.302. In the case of GCUACGAGAGGUCAUUUCCTT against Chrnb1, the z-score was inactive: 0.041. With GCAUUAGUCAUUGUUAACGTT against Hsd17b4 the z-score was inactive: 0.653. For GGUCCAGAUUGCUUAGAUGTT against Zbtb11os1, the z-score was inactive: -0.398. For GGUGUAAAAAUGUGAAAGATT against Suv39h2, the z-score was inactive: 0.208. For GCUAGAAAGGACUUCGUGGTT against Pla2g4f, the z-score was active: -2.36. With CGACUACAAUGGGCUCAAGTT against Kifc3 the z-score was active: -2.1. With GGACUCUGAAUCAACUUGGTT against Stx7 the z-score was inactive: -1.09. In the case of GGUUAAGGGCAAAAUUCUGTT against Rpl21, the z-score was inactive: -0.269. With GGAGUGAAGGCCAGCUGAATT against Son the z-score was inactive: -0.848. For GCCUUUACCAGAAUUAUAGTT against Itgb3, the z-score was inactive: 0.57. With CCACCAGAAUCCUAACACATT against Nucb2 the z-score was active: 2.55. With GCUGCGUGUGAUUGAACCCTT against Coro2b the z-score was inactive: 0.939. With CCAUUGACUCAGUUAAAACTT against Gipc2 the z-score was inactive: 0.453. In the case of GCUACAUUUCACGACUGCGTT against Dpm3, the z-score was inactive: 0.314. In the case of GGCCUUCCGCAUUUUAUCATT against Zfp729a, the z-score was active: 2.43. For GCAGAUCUUGACUUGUCCATT against Orc6, the z-score was inactive: -0.852. In the case of GGAUAAAAGUCGAAAAACATT against Mcpt1, the z-score was inactive: 0.246. With CCUUGCACUUACCGCUCCUTT against Gm4792 the z-score was inactive: 0.945. In the case of GGAUGUGCAAGGAAUCUCATT against Spint1, the z-score was inactive: 0.741. For CGGAUUCACAAGAACACCUTT against Pramel12, the z-score was inactive: -0.157. For CCACAUCUGAGACUAUUCATT against Crhr1, the z-score was active: 2.46. In the case of GGACAUUGACGCAUAGGGATT against Arsa, the z-score was inactive: -0.232. For GGAUAUGUUUGGUUAUUUCTT against Acbd4, the z-score was inactive: -0.0997.
